{"sequences": {"note": "By UniProt entry, the sequences of proteins in these tests, tags left out.", "UniProt P31645, whole entry": "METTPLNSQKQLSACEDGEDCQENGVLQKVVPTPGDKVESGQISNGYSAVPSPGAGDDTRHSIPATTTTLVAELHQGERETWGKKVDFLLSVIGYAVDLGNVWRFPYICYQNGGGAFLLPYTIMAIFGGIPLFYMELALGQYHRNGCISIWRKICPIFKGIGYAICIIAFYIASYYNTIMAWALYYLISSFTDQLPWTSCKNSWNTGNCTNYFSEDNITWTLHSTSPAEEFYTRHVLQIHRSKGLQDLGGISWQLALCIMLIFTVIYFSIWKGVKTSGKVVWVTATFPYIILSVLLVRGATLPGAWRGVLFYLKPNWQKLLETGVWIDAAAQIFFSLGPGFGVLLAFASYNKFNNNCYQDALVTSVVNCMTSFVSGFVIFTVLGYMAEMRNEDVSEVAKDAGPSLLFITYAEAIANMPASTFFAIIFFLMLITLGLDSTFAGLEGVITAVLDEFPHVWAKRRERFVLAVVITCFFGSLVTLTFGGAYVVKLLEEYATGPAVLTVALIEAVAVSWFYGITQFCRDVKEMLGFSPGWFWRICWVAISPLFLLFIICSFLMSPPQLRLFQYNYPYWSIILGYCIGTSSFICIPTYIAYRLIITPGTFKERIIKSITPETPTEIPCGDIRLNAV"}, "source": "patent US20110038796A1", "about": "“Method of Nuclear Medical Photography Using Dual-Isotopes” (ATOMIC ENERGY COUNCIL-INSTITUTE OF NUCLEAR ENERGY RESEARCH, priority 2009, published 2011)", "origin": "cited, not measured here", "target": "serotonin transporter (Homo sapiens, UniProt P31645)", "conditions": "cited from earlier work", "note": "At least one compound was matched to its structure with a doubt left.", "data": [{"smiles": "CN(C)Cc1ccccc1Sc1ccc([123I])cc1N", "note": "[[^123I]ADAM]", "values": [{"measurement": "affinity to serotonin transporter relative to affinity to other monoamine transporters (dopamine transporter, norepinephrine transporter)", "value": "50-thousand times"}]}]}
